{"source": "paper PMC11347137", "target": "M.MpeI (called wild type) Q68R,K71R,S295P (UniProt Q8EVR5)", "assay": "SDS-PAGE covalent complex", "details": "160 uM SAM, 160 uM SAM or sinefungin, 37 C, recombinant protein", "note": "A weaker result is weaker than the reference pair of the same experiment. For at least one entry, the source does not settle the construct or the ends of the probe. At least one verdict rests on a figure or table, not on a statement of the authors.", "data": [{"sequence": "CAGCATTATCACAGCGTTTACACAATAACC (double strand) [30-5BrC / 30-5mC-down]", "values": [{"measurement": "binding result", "setting": "10 mM DTT, signal largely lost, 5-bromocytosine at position 15 of strand 1, 5mC at position 15 of strand 2, covalent SDS-PAGE: 10 mM Tris-HCl pH 7.9, 50 mM NaCl, residues 1-395, protein details: C-terminal LEHHHHHH, label: 5' Cy3 or 5' 32P on strand 2, letters put together from the description", "result": "binds more weakly"}, {"measurement": "binding result", "setting": "no DTT, 5-bromocytosine at position 15 of strand 1, 5mC at position 15 of strand 2, covalent SDS-PAGE: 10 mM Tris-HCl pH 7.9, 50 mM NaCl, +/-10 mM DTT, residues 1-395, protein details: C-terminal LEHHHHHH, label: 5' Cy3 or 5' 32P on strand 2, letters put together from the description", "result": "binds more weakly"}]}, {"sequence": "CAGCATTATCACAGCGTTTACACAATAACC (double strand) [30-5FC / 30-5mC-down]", "values": [{"measurement": "binding result", "setting": "10 mM DTT, 5-fluorocytosine at position 15 of strand 1, 5mC at position 15 of strand 2, covalent SDS-PAGE: 10 mM Tris-HCl pH 7.9, 50 mM NaCl, residues 1-395, protein details: C-terminal LEHHHHHH, label: 5' Cy3 or 5' 32P on strand 2, letters put together from the description", "result": "binds"}, {"measurement": "binding result", "setting": "no DTT, 5-fluorocytosine at position 15 of strand 1, 5mC at position 15 of strand 2, covalent SDS-PAGE: 10 mM Tris-HCl pH 7.9, 50 mM NaCl, +/-10 mM DTT, residues 1-395, protein details: C-terminal LEHHHHHH, label: 5' Cy3 or 5' 32P on strand 2, letters put together from the description", "result": "binds"}]}, {"sequence": "CAGCATTATCACAGCGTTTACACAATAACC (double strand) [30-5IC / 30-5mC-down]", "values": [{"measurement": "binding result", "setting": "10 mM DTT, signal largely lost, 5-iodocytosine at position 15 of strand 1, 5mC at position 15 of strand 2, covalent SDS-PAGE: 10 mM Tris-HCl pH 7.9, 50 mM NaCl, residues 1-395, protein details: C-terminal LEHHHHHH, label: 5' Cy3 or 5' 32P on strand 2, letters put together from the description", "result": "binds more weakly"}, {"measurement": "binding result", "setting": "no DTT, 5-iodocytosine at position 15 of strand 1, 5mC at position 15 of strand 2, covalent SDS-PAGE: 10 mM Tris-HCl pH 7.9, 50 mM NaCl, +/-10 mM DTT, residues 1-395, protein details: C-terminal LEHHHHHH, label: 5' Cy3 or 5' 32P on strand 2, letters put together from the description", "result": "binds more weakly"}]}, {"sequence": "CAGCATTATCACAGCGTTTACACAATAACC (double strand) [30-5OHC / 30-5mC-down]", "values": [{"measurement": "binding result", "setting": "10 mM DTT, less DTT-sensitive than 5BrC/5IC, 5-hydroxycytosine at position 15 of strand 1, 5mC at position 15 of strand 2, covalent SDS-PAGE: 10 mM Tris-HCl pH 7.9, 50 mM NaCl, residues 1-395, protein details: C-terminal LEHHHHHH, label: 5' Cy3 or 5' 32P on strand 2, letters put together from the description", "result": "binds more weakly"}, {"measurement": "binding result", "setting": "no DTT, 5-hydroxycytosine at position 15 of strand 1, 5mC at position 15 of strand 2, covalent SDS-PAGE: 10 mM Tris-HCl pH 7.9, 50 mM NaCl, +/-10 mM DTT, residues 1-395, protein details: C-terminal LEHHHHHH, label: 5' Cy3 or 5' 32P on strand 2, letters put together from the description", "result": "binds more weakly"}]}, {"sequence": "CAGCATTATCACAGCGTTTACACAATAACC (double strand) [30-5hmC / 30-5mC-down]", "values": [{"measurement": "binding result", "setting": "10 mM DTT, less DTT-sensitive than 5BrC/5IC, 5-hydroxymethylcytosine at position 15 of strand 1, 5mC at position 15 of strand 2, covalent SDS-PAGE: 10 mM Tris-HCl pH 7.9, 50 mM NaCl, residues 1-395, protein details: C-terminal LEHHHHHH, label: 5' Cy3 or 5' 32P on strand 2, letters put together from the description", "result": "binds more weakly"}, {"measurement": "binding result", "setting": "no DTT, 5-hydroxymethylcytosine at position 15 of strand 1, 5mC at position 15 of strand 2, covalent SDS-PAGE: 10 mM Tris-HCl pH 7.9, 50 mM NaCl, +/-10 mM DTT, residues 1-395, protein details: C-terminal LEHHHHHH, label: 5' Cy3 or 5' 32P on strand 2, letters put together from the description", "result": "binds more weakly"}]}]}
